Reference: article PMC4636238

Amino acid sequences for entries named in this document (tags omitted). Residues count along the entry.
UniProt P15516, residues 20-43: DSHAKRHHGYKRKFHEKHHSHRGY

Legend:
[1] = molecular target: biotinylated histatin 5 (human) (UniProt P15516); test: affinity purification with mass spectrometry; pull-down: biotinylated histatin 5 on immobilized streptavidin agarose beads; 300 ug lyophilized parotid saliva in pH 7.0 binding buffer, 4 h, 4°C; washed with PBS with 75 mM NaCl pH 5.0; eluted at pH 2.8; trypsin digestion, LC-ESI-MS/MS; only the target purified
histatin 5 (human) = histatin 5 (human) (UniProt P15516); test: affinity purification with mass spectrometry; co-IP: synthetic histatin 5 held by mouse anti-histatin 3/5 monoclonal antibody on protein G magnetic beads; 300 ug pooled parotid saliva protein in PBS pH 7.5, 4°C, 24 h; washed with PBS; eluted with 2.5% acetic acid; in-solution or in-gel trypsin digestion, LC-ESI-MS/MS; only the target purified

- binding [1]: binds
- binding (histatin 5 (human)): binds
B1: Junction plakoglobin (protein, UniProt P14923 1-745)
chain: MEVMNLMEQPIKVTEWQQTYTYDSGIHSGANTCVPSVSSKGIMEEDEACGRQYTLKKTTTYTQGVPPSQGDLEYQMSTTARAKRVREAMCPGVSGEDSSLLLATQVEGQATNLQRLAEPSQLLKSAIVHLINYQDDAELATRALPELTKLLNDEDPVVVTKAAMIVNQLSKKEASRRALMGSPQLVAAVVRTMQNTSDLDTARCTTSILHNLSHHREGLLAIFKSGGIPALVRMLSSPVESVLFYAITTLHNLLLYQEGAKMAVRLADGLQKMVPLLNKNNPKFLAITTDCLQLLAYGNQESKLIILANGGPQALVQIMRNYSYEKLLWTTSRVLKVLSVCPSNKPAIVEAGGMQALGKHLTSNSPRLVQNCLWTLRNLSDVATKQEGLESVLKILVNQLSVDDVNVLTCATGTLSNLTCNNSKNKTLVTQNSGVEALIHAILRAGDKDDITEPAVCALRHLTSRHPEAEMAQNSVRLNYGIPAIVKLLNQPNQWPLVKATIGLIRNLALCPANHAPLQEAAVIPRLVQLLVKAHQDAQRHVAAGTQQPYTDGVRMEEIVEGCTGALHILARDPMNRMEIFRLNTIPLFVQLLYSSVENIQRVAAGVLCELAQDKEAADAIDAEGASAPLMELLHSRNEGTATYAAAVLFRISEDKNPDYRKRVSVELTNSLFKHDPAAWEAAQSMIPINEPYGDDMDATYRPMYSSDVPLDPLEMHMDMDGDYPIDTYSDGLRPPYPTADHMLA

No constants are given. Whether binding was seen depends on the method and setting. Binding seen in cells or lysates may run through a third protein. These calls come from enrichment with a bait or labelling near it, and not all partners need be listed.
